Reference: PubChem BioAssay AID2685 (National Center for Advancing Translational Sciences (NCATS), 2010)
This is one part of the list. These are further read-outs of the screen, such as a control signal, another cell line or another target. No call is given for them. The list favours compounds with an active or inconclusive main result. Words in brackets tell the shape of the fitted curve; partial curves, single points and poor fits give uncertain potencies.

Experiment: qHTS Assay for Lipid Storage Modulators in Drosophila S3 Cells;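 on cell number change: cells counted by Cell Tracker Red CMTPX staining in the red channel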
Conditions: BODIPY lipid droplet fluorescence, 18-24 h; for cell number change: measured here: cell count max response, cells fed with added oleic acid
Outline: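 Drosophila S3 cells loaded with oleic acid (400 uM, as added) and compounds at several concentrations; lipid droplets imaged by 488-nm laser-scanning cytometry, 500–530 nm intensity and object ratio to cell channel. Percent activity normalized to 20 uM Triacsin C.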

[1] = measured here: cell number channel AC50, cells fed with added oleic acid
[2] = measured here: lipid fluorescence (Fed channel) AC50, cells fed with added oleic acid

| SMILES | AC50 [1] | AC50 [2] | cell number change [%] |
| --- | --- | --- | --- |
| CC1CN(S(=O)(=O)c2cccc(C(=O)Nc3ccc4c(c3)CCC4)c2)CC(C)O1 (stereo not given) | 2.06 µM [rising, partial curve] | 2.31 µM [rising, partial curve] | – |
| Cc1c(C(=O)Nc2nnc(SCc3ccccc3Cl)s2)cccc1[N+](=O)[O-] | 29.1 µM [rising, single point] | 8.2 µM [rising, partial curve] | 50 |
| Cc1cc(C)nc(N(C#N)Cc2cccc3ccccc23)n1 | – | 0.58 µM [rising, full curve] | – |
| C=CCn1c(SCC(=O)c2ccc(O)c(O)c2)nnc1-c1ccc(OC)cc1 | 29.1 µM [falling, single point] | – | -39.3 |
| NC(=S)N=Nc1c(O)[nH]c2ccc(F)cc12 | 6.51 µM [rising, single point] | – | 28.4 |
| Cc1ccc(C(=O)Nc2ncc3c(n2)CC(c2ccco2)CC3=O)cc1 (stereo not given) | – | 0.00461 µM [rising, full curve, poor fit] | 2.34 |
| CCCCCN(C(=O)COC(=O)c1ccc(Br)o1)c1c(N)n(CCCC)c(=O)[nH]c1=O | – | 1.46 µM [rising, partial curve, poor fit] | 1.86 |
| Cc1oc(-c2ccccc2F)nc1CS(=O)(=O)CC(=O)NC(C)CCc1ccccc1 (stereo not given) | – | – | 14.4 |
| COc1ccc(C2CC(C(F)(F)F)n3nc(C(N)=O)c(Cl)c3N2)cc1OC (stereo not given) | 0.092 µM [falling, full curve, poor fit] | – | 6.75 |
| COc1ccc(NC(=S)NCc2ccc(Cl)cc2)c(OC)c1 | 0.92 µM [falling, full curve, poor fit] | – | -32.3 |
| O=[N+]([O-])c1cc(-c2cnc3ccccc3n2)ccc1Oc1ccc(Cl)cc1 | – | 16.4 µM [falling, single point] | -19.4 |
| Cc1ccc(/C=N/NC(=O)c2ccoc2C)s1 | 32.6 µM [falling, single point] | 13 µM [rising, partial curve, poor fit] | -40.8 |
| O=C(Nc1cccnc1)c1ccc(Br)s1 | – | 32.6 µM [falling, single point] | 13.3 |
| O=C(c1ccc(F)cc1)n1c(NCc2ccccc2)n[nH]c1=S | – | 0.82 µM [rising, single point] | – |
| O=CC1=C(c2ccccc2)Oc2ccccc2O1 | – | 25.9 µM [falling, single point] | -14.2 |
| COc1cccc(NC(=O)NC2CCN(Cc3nnnn3Cc3ccc(F)cc3)CC2)c1 | – | 0.13 µM [falling, full curve, poor fit] | 14.2 |
| Fc1ccc(N=c2ssnc2Cl)c(F)c1 | 0.0058 µM [falling, full curve, poor fit] | 4.61 µM [falling, full curve, poor fit] | -62.5 |
| CC(=O)N1CCN(C(=O)c2cccc(S(=O)(=O)Nc3c(C)n(C)n(-c4ccccc4)c3=O)c2)CC1 | – | – | 15 |
| O=C(Cn1ccc2ccccc2c1=O)NCCC(=O)Nc1ccc2c(c1)OCCO2 | – | – | 0.8 |

| SMILES | AC50 [1] | AC50 [2] | cell number change [%] |
| --- | --- | --- | --- |
| CC(Sc1nnc(NCc2ccccc2)s1)C(=O)Nc1ccc2c(c1)C(=O)c1ccccc1C2=O (stereo not given) | 0.366 µM [rising, full curve, poor fit] | – | 3.7 |
| CCN(CC(=O)Nc1c(F)cccc1F)C(=O)Cc1ccc2c(c1)CCC2 | 32.6 µM [falling, partial curve] | – | -61.8 |
| CCC/C=C(\CCC)C(NS(=O)(=O)c1ccc(C(F)(F)F)cc1)c1ccccc1 (stereo not given) | 20.6 µM [falling, single point] | 2.06 µM [rising, full curve, poor fit] | -46.8 |
| COc1ccc(NC(=O)NC2CCCCCCC2)cc1 | – | 0.794 µM [falling, single point] | 9.15 |
| Cc1cccc(C(=O)Nc2sc(C)c(-c3ccccc3)c2C#N)c1 | – | 29.1 µM [rising, single point] | -17.3 |
| O=C(COc1ccc([N+](=O)[O-])cc1)N1CCN(c2nnc(-c3ccccc3)c3ccccc23)CC1 | – | 8.2 µM [falling, partial curve] | -15.1 |
| CCOC(=O)N1CCN(C(=O)CNS(=O)(=O)c2c(C)cc(C)cc2C)CC1 | – | 0.58 µM [falling, single point] | 12.2 |
| Cc1cc(C)cc(NC(=O)CCCn2nc(C)c3c(C)n(-c4ccccc4)nc3c2=O)c1 | – | – | -5.44 |
| CC(C)n1ncc2c(C(=O)N3CCN(Cc4ccc(Cl)s4)CC3)cc(C3CC3)nc21 | 18.4 µM [falling, single point] | – | -32.4 |
| C=CCn1c(=N)c(C(=O)NCCCOC)cc2c(=O)n3ccccc3nc21 | 18.4 µM [falling, single point] | – | -45.7 |
| COc1ccccc1C1=Nc2cccc3cccc(c23)N1 | 18.4 µM [falling, single point] | 14.6 µM [falling, partial curve] | -37.7 |
| O=C1c2cccc3cccc(c23)C(=O)N1OS(=O)(=O)c1ccccc1 | – | 0.58 µM [falling, single point] | -28.8 |
| CN(C)CCNc1ncnc2c1sc1nc(-c3ccccc3)c3c(c12)CCCC3 | – | – | -29.3 |
| Cc1ccc(C2CC2/C(=N/O)c2ccc(F)cc2)cc1 (stereo not given) | 10.3 µM [falling, partial curve] | 23.1 µM [falling, partial curve] | -48.4 |
| C[C@]12CS(=O)(=O)C[C@H]1SC(=S)N2c1ccccc1 | 0.0116 µM [rising, full curve, poor fit] | – | 2.67 |
| Nc1ccnc(Oc2ccc(F)cc2)c1 | 0.146 µM [falling, full curve, poor fit] | 0.164 µM [falling, full curve] | -19.2 |
| CCOc1ccc(C(O)(CCC(C)C)C(CN2CCOCC2)c2ccccc2)cc1 (stereo not given) | 29.1 µM [falling, single point] | 20.6 µM [falling, single point] | -61.6 |
| COc1cc(CNCCc2ccccc2)cc(Cl)c1OCc1ccccc1 | 3.66 µM [falling, partial curve] | – | -63.1 |

Two compounds from above, limited to AC50 [1] and cell number change [%].

| SMILES | AC50 [1] | cell number change [%] |
| --- | --- | --- |
| COc1ccc(NC(=O)NC2CCCCCCC2)cc1 | – | 9.15 |
| Cc1cccc(C(=O)Nc2sc(C)c(-c3ccccc3)c2C#N)c1 | – | -17.3 |
